At least one structure is not confirmed: it was looked up by name or label, or the drawing left a doubt. *1 amine or outer side, *2 acyl side, *3 side chain or, on linkers, in order; H or OH if unused. Where a SMILES comes first, the peptide text is derived from it. Bridges are numbered along the chain shown (N, C = ends). [ ]: non-standard residue; d: D form. The star is where a group is joined. ξ: configuration not given here. X2 = COc1cc2cc(c1Cl)N(C)C(=O)C[C@H](OC(=O)[C@H](C)N(C)C(=O)CCSC1CC(=O)N(CC3CCC(C(=O)*)CC3)C1=O)[C@@]1(C)O[C@H]1[C@H](C)[C@@H]1C[C@@](O)(NC(=O)O1)[C@H](OC)/C=C/C=C(\C)C2; 1Nal = N[C@@H](Cc1cccc2ccccc12)C(=O)O; TBMB = c1c(C[*:1])cc(C[*:3])cc1C[*:2]; Tle = CC(C)(C)[C@H](N)C(=O)O; βAla = NCCC(=O)O; ξA = CC(N)C(=O)O; Sar = CNCC(=O)O
Tests used:
MT1-MMP = MT1-MMP (Homo sapiens, UniProt P50281); test: Fluorescence polarisation competition binding
Experimental: By means of comparison, a non-reducible BDC was prepared, BT1721, which includes a non-reducible maleimide thioether linkage which is […].

hemopexin domain of MT1 = hemopexin domain of MT1 (Homo sapiens, UniProt P50281); test: Bicycle peptide binding to hemopexin domain; conditions: read-out: apparent Kd

SMILES	Ki (MT1-MMP)	Kd (hemopexin domain of MT1)
COc1cc2cc(c1Cl)N(C)C(=O)C[C@H](OC(=O)[C@H](C)N(C)C(=O)CCSC1CC(=O)N(CC3CCC(C(=O)NCCCC[C@H](NC(C)=O)C(=O)NCC(=O)N(C)CC(=O)N(C)CC(=O)N(C)CC(=O)N(C)CC(=O)N(C)CC(=O)N(C)CC(=O)N(C)CC(=O)N(C)CC(=O)N(C)CC(=O)N(C)CC(=O)NC(C)C(=O)N[C@H]4CSCc5cc6cc(c5)CSC[C@H](NC(=O)[C@@H](C)NC(=O)[C@H](Cc5cccc7ccccc57)NC(=O)[C@H](CCC(=O)O)NC(=O)[C@H](CC(N)=O)NC(=O)[C@@H](C)NC4=O)C(=O)N[C@@H](CCC(=O)O)C(=O)N[C@@H](CC(=O)O)C(=O)N[C@@H](Cc4ccccc4)C(=O)N[C@@H](Cc4ccc(O)cc4)C(=O)N[C@@H](CC(=O)O)C(=O)N[C@@H](C(C)(C)C)C(=O)N[C@H](C(N)=O)CSC6)CC3)C1=O)[C@@]1(C)O[C@H]1[C@H](C)[C@@H]1C[C@@](O)(NC(=O)O1)[C@H](OC)/C=C/C=C(\C)C2 (some centres unmarked) [BT1721] (Ac-K(X2)G[Sar][Sar][Sar][Sar][Sar][Sar][Sar][Sar][Sar][Sar][ξA]C[dA]NE[1Nal][dA]CEDFYD[Tle]C-NH2; linker 14-20-27 via TBMB)	1.1 nM	
C[C@H](NC(=O)CN(C)C(=O)CN(C)C(=O)CN(C)C(=O)CN(C)C(=O)CN(C)C(=O)CN(C)C(=O)CN(C)C(=O)CN(C)C(=O)CN(C)C(=O)CN(C)C(=O)CCN)C(=O)N[C@H]1CSCc2cc3cc(c2)CSC[C@H](NC(=O)[C@@H](C)NC(=O)[C@H](Cc2cccc4ccccc24)NC(=O)[C@H](CCC(=O)O)NC(=O)[C@H](CC(N)=O)NC(=O)[C@@H](C)NC1=O)C(=O)N[C@@H](CCC(=O)O)C(=O)N[C@@H](CC(=O)O)C(=O)N[C@@H](Cc1ccccc1)C(=O)N[C@@H](Cc1ccc(O)cc1)C(=O)N[C@@H](CC(=O)O)C(=O)N[C@@H](C(C)(C)C)C(=O)N[C@H](C(N)=O)CSC3 [N241] (H-[βAla][Sar][Sar][Sar][Sar][Sar][Sar][Sar][Sar][Sar][Sar]AC[dA]NE[1Nal][dA]CEDFYD[Tle]C-NH2; linker 13-19-26 via TBMB; N-terminus and C-terminus assumed)		~2 nM

— US10441663B2, “Methods for treating cancer” (Bicycle Therapeutics Limited, priority 2016, dated 2019)
